Record: PubChem BioAssay AID504774 (Drosophila RNAi Screening Center, 2011)
Screen: 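Fly genes whose loss alters survival after alkylation damage to DNA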 (primary screen). Cells: Drosophila Kc167 cells. Knock-down reagent: long dsRNA against Drosophila genes, about 0.25 µg dsRNA per well. Time to read-out: about 6 days: 3 days knock-down, then 3 days with or without MMS. Challenge: methyl methanesulphonate 0.004% (w/v) for 3 days after knock-down. Detection: 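Viability in wells given MMS, read as ATP luminescence, normalised by quantiles plate by plate and averaged across replicates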. Reading the numbers: mean viability with MMS and viability with MMS: higher = more surviving cells after MMS.
The deposit covers about 23,000 reagents; this is a random part of those with a known target gene and a result. 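Values are quantile-normalised luminescence on an arbitrary scale; higher means more cells surviving MMS.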 Reagents against one gene are numbered here.

target gene	reagent	mean viability with MMS	viability with MMS, replicate 1	viability with MMS, replicate 2
dnd (GeneID 42580)	1	3.45e6	3.90e6	3.95e6
Diap2 (GeneID 36748)	1	3.64e6	4.10e6	4.15e6
CG11902 (GeneID 43070)	1	3.37e6	4.13e6	4.06e6
CG14626 (GeneID 31064)	1	3.49e6	3.98e6	3.96e6
CG12640 (GeneID 31973)	1	3.45e6	3.88e6	3.93e6
xmas (GeneID 44271)	1	3.45e6	3.96e6	3.90e6
xmas (GeneID 44271)	2	3.67e6	4.08e6	4.18e6
ppk20 (GeneID 43486)	1	4.12e6	5.10e6	4.63e6
krz (GeneID 53554)	1	3.59e6	4.04e6	4.10e6
CG31817 (GeneID 260659)	1	3.51e6	4.09e6	3.89e6
CG31817 (GeneID 260659)	2	3.57e6	4.12e6	3.95e6
CG31817 (GeneID 260659)	3	3.57e6	3.96e6	4.09e6
CG15080 (GeneID 37167)	1	3.37e6	3.72e6	3.85e6
CG15614 (GeneID 36899)	1	3.61e6	4.06e6	4.10e6
cysu (GeneID 42100)	1	3.49e6	3.94e6	3.98e6
Coq5 (GeneID 32272)	1	3.56e6	4.01e6	4.05e6
Coq5 (GeneID 32272)	2	3.81e6	4.35e6	4.24e6
CG3337 (GeneID 42519)	1	1.85e6	4.09e6	3.93e6
CG34406 (retired record) (GeneID 33536)	1	3.69e6	3.95e6	4.47e6
CG34406 (retired record) (GeneID 33536)	2	3.84e6	4.08e6	4.49e6
cbt (GeneID 33224)	1	3.60e6	4.06e6	4.12e6
CG1671 (GeneID 36019)	1	3.57e6	4.06e6	4.04e6
CG31704 (GeneID 318906)	1	3.39e6	3.87e6	3.91e6
Ns2 (GeneID 36989)	1	3.30e6	3.77e6	3.78e6
CG31698 (GeneID 318888)	1	3.66e6	4.08e6	4.15e6
ato (GeneID 40975)	1	3.34e6	3.83e6	3.79e6
Elp1 (GeneID 41399)	1	3.59e6	4.12e6	4.05e6
SmydA-9 (GeneID 31859)	1	3.56e6	3.99e6	4.07e6

Targets above whose gene name begins with X or x:
target gene	reagent	mean viability with MMS	viability with MMS, replicate 1	viability with MMS, replicate 2
xmas (GeneID 44271)	1	3.45e6	3.96e6	3.90e6
xmas (GeneID 44271)	2	3.67e6	4.08e6	4.18e6
